Reference: PubChem BioAssay AID493014 (National Center for Advancing Translational Sciences (NCATS), 2011)
“And” between values parts separate entries of the source, which are not always exact repeats. Equal values may be shown once. This is one part of the list. Shown are side measurements of this screen, not its main read-out; they come without a call. Most of these compounds were active or inconclusive in the main read-out, so they are no random draw. Words in brackets tell the shape of the fitted curve; partial curves, single points and poor fits give uncertain potencies.

Assay: qHTS Assay to Find Inhibitors of Chronic Active B-Cell Receptor Signaling
Conditions: ABC-DLBCL IkBa-CBG/CBR reporter, luminescence ratio (green luciferase fused to IkBa over red control in TMD8 lymphoma cells), 4 h
In short: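 TMD8 ABC-DLBCL cells carrying doxycycline-inducible green luciferase fused to IkappaBalpha plus unfused red luciferase were exposed to compounds (up to 46 uM) for 4 hrs at 37C. Activity came from the overlap-corrected green/red luminescence ratio.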

[1] = measured here: CBR red luminescence, cell number
[2] = measured here: IkBa-CBG green luminescence

| SMILES | AC50 [1] | AC50 [2] |
| --- | --- | --- |
| CCn1c(SCC(=O)Nc2ccc(C(C)=O)cc2)nnc1C1CC1 | 0.355 µM [rising, full curve, poor fit] |  |
| CCOc1ccc2nc(N3CCCCCC3)sc2c1 | 17.8 µM [falling, single point] |  |
| COc1cccc(NC(=O)CN(C)C(=O)c2ccc3c(c2)CC(c2ccccc2)OC3=O)c1 (centres undefined) | 16.4 µM [falling, partial curve, poor fit] |  |
| Cc1ccccc1C(=O)Nc1nnc(-c2ccco2)o1 | 11.2 µM [falling, partial curve, poor fit] |  |
| O=c1oc(-c2ccc(O)c(O)c2)cc2cc(O)cc(O)c12 | 29.1 µM [falling, single point] |  |
| CCN(c1ccccc1)S(=O)(=O)c1cc(C(=O)Nc2ccc(Br)cc2)ccc1F | 9.2 µM [falling, partial curve] and 35.5 µM [falling, single point] |  |
| N/C(=N\OC(=O)c1cccc(F)c1)c1ccccn1 | 8.91 µM [falling, partial curve, poor fit] |  |
| O=[N+]([O-])c1cc(/C=N/n2c(-c3ccncc3)n[nH]c2=S)ccc1Cl | 15.8 µM [falling, partial curve] | 11.2 µM [rising, partial curve, poor fit] |
| CN1c2ccccc2-c2nc3ccccc3n2C1c1ccco1 (centres undefined) | 11.2 µM [falling, partial curve, poor fit] |  |
| C/C=C(/C)C(=O)Nc1cccc(C2=NOC3(C2)C[C@@H](C(N)=O)N(C(=O)c2ccc(OC)cc2)C3)c1 (some centres undefined) | 0.891 µM [falling, full curve, poor fit] |  |
| O=[N+]([O-])c1cccc(CSc2cccc[n+]2[O-])c1 | 7.08 µM [rising, partial curve, poor fit] |  |
| CCOC(=O)c1c(C)[nH]c(C(=O)N2CCCC(C(=O)c3cccc(OC)c3)C2)c1C (centres undefined) | 10 µM [falling, partial curve] |  |
| Cc1oc(-c2ccccc2)nc1CS(=O)CC(=O)O (centres undefined) | 29.1 µM [rising, single point] |  |
| CC1(C)O[C@@H]2C[C@H]3[C@@H]4C[C@H](F)C5=CC(=O)CC[C@]5(C)[C@H]4[C@@H](O)C[C@]3(C)[C@]2(C(=O)CO)O1 | 0.146 µM [rising, full curve, poor fit] | 0.00461 µM [falling, full curve] |
| O=C(NC1CCCCC1)N1CCCC(c2nc3ccccc3[nH]2)C1 (centres undefined) | 0.00517 µM [rising, full curve, poor fit] |  |
| CSc1ccc(Cl)c(C(=O)Nc2cc(S(=O)(=O)N3CCOCC3)ccc2N2CCOCC2)c1 | 3.66 µM [rising, full curve] |  |
| C[C@@]12C(=O)N(CC3CCCO3)CC(=O)N1[C@H]1c3cc(Cl)ccc3OC[C@@H]1[C@@H]2c1ccccc1 (some centres undefined) | 29.1 µM [falling, single point] |  |
| CC(C)(C)C(=O)Cn1ncc(Br)c(Br)c1=O | 8.91 µM [falling, partial curve, poor fit] |  |
| Cc1ccc(C23CC4CC(CC(C(N)=O)(C4)C2)C3)cc1 | 35.5 µM [rising, partial curve, poor fit] |  |
| COC(=O)[C@@H](NC(=O)O[C@H]1C(=O)c2ccc(OC)cc2O[C@@H]1c1ccc2c(c1)OCO2)C(C)C | 18.4 µM [rising, single point] |  |

| SMILES | AC50 [1] | AC50 [2] |
| --- | --- | --- |
| O=C(NNc1ccccc1[N+](=O)[O-])Nc1ccc(Cl)c(Cl)c1 | 20.6 µM [falling, partial curve] |  |
| Cc1ccc(OCc2nnc(N)s2)cc1 |  | 4.47 µM [rising, partial curve, poor fit] |
| Cc1ccc(S(=O)(=O)N(C)CC(=O)NCc2ccncc2)cc1 | 3.26 µM [rising, partial curve, poor fit] |  |
| Cc1cc(C(F)F)n2nc(C(=O)Nc3cccc(C(F)(F)F)c3)nc2n1 | 6.51 µM [rising, partial curve, poor fit] |  |
| CN1C(=O)CSc2ccc(NC(=O)Nc3ccccn3)cc21 | 0.58 µM [falling, full curve] |  |
| CCN(CC)c1ccc2nc3ccc(N)cc3[n+](-c3ccccc3)c2c1 |  | 10.3 µM [rising, partial curve, poor fit] |
| Cc1cc(C(=O)CSc2cccc[n+]2[O-])c(C)n1-c1ccc(Br)cc1 | 25.1 µM [falling, single point] | 31.6 µM [falling, single point] |
| COc1ccc(-n2c(SCC(=O)NCC3CCCO3)nc3ccccc32)cc1 (centres undefined) | 6.51 µM [rising, single point] |  |
| CCOc1cc(/C=N/NC(=O)c2cccnc2)ccc1O | 22.4 µM [falling, single point] |  |
| COc1cccc(C(=O)Nc2ccc3c(c2)CCCN3C(=O)c2cccs2)c1OC | 35.5 µM [falling, single point] |  |
| CC(OC(=O)c1ccc2ccccc2n1)C(=O)c1ccccc1 (centres undefined) | 3.98 µM [rising, partial curve, poor fit] |  |
| Cc1ccc(-n2ncc3c(NCCc4ccccc4)ncnc32)cc1 | 35.5 µM [falling, single point] |  |
| CCOC(=O)c1cc(-c2ccccc2)nn1-c1ccccn1 | 0.651 µM [rising, full curve, poor fit] |  |
| COCCn1c(SC(C)C(=O)NCC2CCCO2)nc2scc(-c3ccc(F)cc3)c2c1=O (centres undefined) | 14.6 µM [falling, partial curve, poor fit] | 14.6 µM [rising, partial curve, poor fit] |
| Cc1cc(=O)oc2ccc(OCC(=O)N(Cc3ccc(F)cc3)Cc3ccco3)cc12 | 20.6 µM [falling, single point] |  |
| O=C(CCc1ccccc1)Nc1ccc(F)cc1F | 18.4 µM [falling, partial curve, poor fit] |  |
| COc1ccc(NC(=O)c2ccco2)cc1NC(=O)c1cccnc1 | 0.058 µM [rising, full curve, poor fit] |  |
| COc1ccc(Nc2nc(-c3ccccc3)c(C(=O)Nc3cccnc3)s2)cc1 | 15.8 µM [falling, single point] |  |
| COc1cccc(C(=O)OCC(=O)Nc2cc(C)c(C)cc2[N+](=O)[O-])c1 | 6.51 µM [rising, partial curve, poor fit] |  |
| COC(=O)COc1cccc2c(=O)n(CC(=O)Nc3ccc4c(c3)OCCO4)ccc12 | 0.0891 µM [rising, full curve, poor fit] |  |

Looked up by compound from above:

| SMILES | AC50 [1] | AC50 [2] |
| --- | --- | --- |
| COc1ccc(NC(=O)c2ccco2)cc1NC(=O)c1cccnc1 | 0.058 µM [rising, full curve, poor fit] |  |
| CCN(CC)c1ccc2nc3ccc(N)cc3[n+](-c3ccccc3)c2c1 |  | 10.3 µM [rising, partial curve, poor fit] |
| Cc1ccc(OCc2nnc(N)s2)cc1 |  | 4.47 µM [rising, partial curve, poor fit] |
| Cc1ccc(S(=O)(=O)N(C)CC(=O)NCc2ccncc2)cc1 | 3.26 µM [rising, partial curve, poor fit] |  |
| COc1cccc(C(=O)Nc2ccc3c(c2)CCCN3C(=O)c2cccs2)c1OC | 35.5 µM [falling, single point] |  |

Additional records

| SMILES | AC50 [1] | AC50 [2] |
| --- | --- | --- |
| Cn1c(=O)c(Cc2ccccc2)c(O)c2ccccc21 | 20.6 µM [rising, single point] |  |
| O=C(CCN1C(=O)/C(=C/c2ccccc2Cl)SC1=S)NC1CCS(=O)(=O)C1 (centres undefined) | 14.1 µM [falling, single point] |  |
| c1ccc(Nc2nc(CSc3ncn[nH]3)cs2)cc1 | 28.2 µM [falling, single point] |  |
| CCOC(=O)c1[nH]ncc1[C@@H]1C[C@H]2CN(Cc3cccc(Cl)c3)C(=O)[C@]23CCCN13 | 1.41 µM [rising, full curve, poor fit] |  |
| O=[N+]([O-])c1cccc(-c2noc(-c3cccs3)n2)c1 | 0.631 µM [rising, full curve, poor fit] |  |
| CC(CCc1ccccc1)NC(=O)c1ccccc1 (centres undefined) | 6.51 µM [falling, single point] |  |
| CC(=O)Nc1nc2nc(-c3ccccc3)cc(-c3ccccc3)n2n1 | 3.98 µM [falling, full curve] |  |
| O=C(COC(=O)c1ccc2c(c1[N+](=O)[O-])C(=O)c1ccccc1C2=O)NC1CC1 | 14.1 µM [falling, single point] |  |
| Cc1ccc(C(=O)Nc2ccc(-n3c(C)nc4ccccc4c3=O)cc2)cc1[N+](=O)[O-] | 15.8 µM [falling, single point] |  |
| O=C(CN1CCC(NC(=O)Nc2ccc(F)cc2)CC1)Nc1ccccc1[N+](=O)[O-] | 35.5 µM [rising, single point] | 11.2 µM [falling, partial curve, poor fit] |
| COc1ccc(C2COC(=O)C2=N)c(NC(=O)c2ccccc2)c1 (centres undefined) | 14.6 µM [falling, partial curve, poor fit] |  |
| O=C(NCCC1=CCCCC1)c1c(O)nc2sccn2c1=O | 2.91 µM [falling, partial curve, poor fit] |  |
| O=C(Cn1cc(/C=N/NC(=O)c2ccccc2Br)c2ccccc21)Nc1ccc(F)cc1 | 18.4 µM [falling, single point] |  |
| CSc1nc2ccc(NS(=O)(=O)c3ccc([N+](=O)[O-])cc3)cc2s1 | 15.8 µM [falling, partial curve, poor fit] |  |
| O=C(NC(NNc1ccc([N+](=O)[O-])cc1)(C(F)(F)F)C(F)(F)F)c1ccccc1Cl | 8.91 µM [falling, partial curve] |  |
| O=C(Nc1ccccc1C(=O)NCCc1ccccc1)c1ccco1 |  | 12.6 µM [rising, partial curve, poor fit] |
| COc1cc2c(cc1OC)CN(C(=O)C1CCCN1S(=O)(=O)c1ccc(C)cc1)CC2 (centres undefined) | 11.2 µM [rising, partial curve, poor fit] |  |
| Oc1cccc2c(NC(=S)Nc3ccc(SC(F)F)cc3)cccc12 | 0.461 µM [falling, full curve] |  |
| COc1ccc(/C=C2\SC(=S)N(CCC(=O)Nc3ccccc3C(=O)O)C2=O)cc1 | 1 µM [falling, full curve] |  |
